Experimental data: PubChem BioAssay AID1259254 (NCATS, 2017)
In all, the deposit lists about 59,000 reagents; shown is a part drawn at random. About 1,550 of them (2.6%) count as active. 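G2 share is only a proxy for re-replication; each gene was hit by three separate siRNAs, and active genes were retested.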 Entries without a mark were called inactive. The numbers tell different reagents against one gene apart. Not all columns of the deposit are shown. The record does not give: the amount of reagent.

Aim: 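Gene knock-downs that lead to re-replication, shown by excess G2 DNA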 (primary screen)
Cell system: human HCT116 colorectal cancer cells
Knock-down reagent: single siRNA against human genes
Duration: 3 days
Read-out: 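Imaged Hoechst DNA stain sorts each cell into a cycle phase by DNA amount; per plate, G2 fraction set to 0% for non-targeting and 100% for GMNN siRNA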
Direction: G2 robust z-score: higher = more G2 cells, more excess DNA replication
Hit rule: 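An siRNA counts as active if its G2 robust z-score lies at least 5 MADs above the screen median; here such calls match roughly 38% of GMNN control or more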

RPL21 (ribosomal protein L21) #1 | G2 robust z-score = 3.63
RPL21 (ribosomal protein L21) #2 | G2 robust z-score = 1.6
RPL21 (ribosomal protein L21) #3 | G2 robust z-score = 2.91
DAXX (death domain associated protein) #1 | G2 robust z-score = 1.61
DAXX (death domain associated protein) #2 | G2 robust z-score = -0.568
DAXX (death domain associated protein) #3 | G2 robust z-score = 0.604

Next part (2 carried over from the part before).
DAXX (death domain associated protein) #2 | G2 robust z-score = -0.568
DAXX (death domain associated protein) #3 | G2 robust z-score = 0.604
KRT16 (keratin 16) #1 | G2 robust z-score = 2.58
KRT16 (keratin 16) #2 | G2 robust z-score = 0.225
KRT16 (keratin 16) #3 | G2 robust z-score = -0.0806
TMEM107 (transmembrane protein 107) #1 | G2 robust z-score = 3.57
TMEM107 (transmembrane protein 107) #2 | G2 robust z-score = 1.61
TMEM107 (transmembrane protein 107) #3 | G2 robust z-score = -0.482
